Measurements published in doi:10.1101/2022.01.25.477656.
Results are given in words; binding and its absence hold for the method and conditions named. In cells and extracts the contact can be indirect. Some results given as binding are weak or reduced against the parent protein; the word gives no strength. Tags and fused reporters may be left off the sequences shown.

Protein sequences, listed by entry. Tags and fused reporters are not part of them.
UniProt P22061: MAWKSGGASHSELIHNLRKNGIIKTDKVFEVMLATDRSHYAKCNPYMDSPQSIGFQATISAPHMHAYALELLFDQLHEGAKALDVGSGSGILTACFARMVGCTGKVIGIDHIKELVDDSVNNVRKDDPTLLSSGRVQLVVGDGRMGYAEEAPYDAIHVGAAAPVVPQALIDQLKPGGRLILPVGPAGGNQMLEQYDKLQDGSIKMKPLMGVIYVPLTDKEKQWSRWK

Biological target: T1, Flag-tagged TRAF2 (UniProt Q12933)
T1 sequence: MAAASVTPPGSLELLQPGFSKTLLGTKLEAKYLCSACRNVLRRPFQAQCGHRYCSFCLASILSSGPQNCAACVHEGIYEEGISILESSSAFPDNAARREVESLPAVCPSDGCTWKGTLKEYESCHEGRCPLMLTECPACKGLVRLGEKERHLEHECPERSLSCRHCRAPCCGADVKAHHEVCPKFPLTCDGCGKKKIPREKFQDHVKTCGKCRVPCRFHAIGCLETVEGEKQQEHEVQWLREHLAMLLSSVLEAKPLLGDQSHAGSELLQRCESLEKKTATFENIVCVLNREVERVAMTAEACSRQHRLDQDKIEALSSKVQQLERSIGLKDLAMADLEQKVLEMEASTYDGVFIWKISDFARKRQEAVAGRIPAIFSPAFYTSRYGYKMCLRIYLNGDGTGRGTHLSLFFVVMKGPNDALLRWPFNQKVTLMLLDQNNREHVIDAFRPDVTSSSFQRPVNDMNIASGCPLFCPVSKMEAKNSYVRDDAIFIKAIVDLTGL
Assay: co-IP

- binding: binds weakly
Substance: Myc-tagged PIMT (protein L-isoaspartyl O-methyltransferase), wild type (from UniProt P22061 1-227) (enzyme)
